Values from PubChem BioAssay AID504784 (Drosophila RNAi Screening Center, 2011).
The deposit covers about 17,000 reagents; below is a random part of those that have a named target and a result. 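Each column is one replicate's B-score; the combined score over replicates was not deposited, so single values may mislead.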 A plus sign joins genes that one reagent is predicted to hit. Not all columns of the deposit are shown.

Screen: 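Fly genes whose silencing alters how much lipid cells keep in droplets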 (primary screen)
Cell system: Drosophila Kc167 embryonic cells
Knock-down reagent: long dsRNA against Drosophila genes, about 250 ng dsRNA per well
Timing: 4 days
Challenge: cells fed 400 µM oleic acid bound to BSA
Read-out: 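Microscope images give a droplet-to-nucleus area ratio, taken as log and converted to a screen-wide B-score; higher values mean greater lipid storage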
Reading the numbers: droplet/nuclear area B-score: higher = more stored lipid (overstorage)

droplet/nuclear area B-score, replicate 1, by target gene and reagent
bab2 (bric a brac 2): DRSC08150 1.27; DRSC08380 0.14
CG31294: DRSC22217 -0.63
mRpL27 (mitochondrial ribosomal protein L27): DRSC22568 1.06
CG2931: DRSC12324 -0.912
mAChR-A (muscarinic Acetylcholine Receptor, A-type): DRSC04702 0.96
Qsox4 (Quiescin sulfhydryl oxidase 4): DRSC14224 4.34
CG34253: DRSC09531 0.0048
Coq4 + frc: DRSC10381 -0.795; DRSC10382 1.82
Atac3 (Ada2a-containing complex component 3): DRSC08579 1.35
Delta: DRSC16648 0.132
CG31313: DRSC13044 -1.84
CG10562: DRSC14257 0.194
Dyrk3 (Dual-specificity tyrosine phosphorylation-regulated kinase 3): DRSC21055 1.17
Tdh (L-threonine dehydrogenase): DRSC11788 2.54
CG8012: DRSC10951 1.35
Spn28F (Serpin 28F): DRSC03615 -0.0469
CG11837: DRSC14397 -0.109
CG11438: DRSC11660 0.242
CG7208: DRSC16212 0.398
CG15044: DRSC19620 0.0547; DRSC21385 -0.679
CG13800 (retired record): DRSC08334 0.434
CG31975 + ovm: DRSC00323 -1.25
CG13084: DRSC02188 0.0392
CG8509: DRSC20109 2.19
RabX5: DRSC08608 -2.15
sturkopf: DRSC08637 0.0775
CG9624: DRSC16523 -0.651
CG46441: DRSC15561 0.824
Taldo (Transaldolase): DRSC04320 0.627
eIF4E4 (eukaryotic translation initiation factor 4E4): DRSC09701 2.82
sip3 (septin interacting protein 3): DRSC15402 -1.1
CG3032: DRSC18266 0.631

Part of the list above in another layout.
{"target gene":"CG13084","dsRNA":"DRSC02188","droplet/nuclear area B-score, replicate 1":0.0392}
{"target gene":"CG8509","dsRNA":"DRSC20109","droplet/nuclear area B-score, replicate 1":2.19}
{"target gene":"RabX5","dsRNA":"DRSC08608","droplet/nuclear area B-score, replicate 1":-2.15}
{"target gene":"sturkopf","dsRNA":"DRSC08637","droplet/nuclear area B-score, replicate 1":0.0775}
{"target gene":"CG9624","dsRNA":"DRSC16523","droplet/nuclear area B-score, replicate 1":-0.651}
{"target gene":"CG46441","dsRNA":"DRSC15561","droplet/nuclear area B-score, replicate 1":0.824}

The results go on:
droplet/nuclear area B-score, replicate 1, by target gene and reagent
CG31626 + CG8677: DRSC21844 -1.87
UQCR-11L (Ubiquinol-cytochrome c reductase 11 kDa subunit-like): DRSC22166 -0.229
CG6041: DRSC18396 0.957
Cyp40 (Cyclophilin 40): DRSC10980 -0.347
CG8708: DRSC07240 0.00687
CG7991: DRSC08609 -0.618
PGRP-SC2 (Peptidoglycan recognition protein SC2): DRSC06481 1.09
CG10970: DRSC17772 0.348
Hs2st (Heparan sulfate 2-O-sulfotransferase): DRSC03348 0.0318
CG14423: DRSC17920 0.0179
Fbxl4 (F box and leucine-rich-repeat gene 4): DRSC19805 0.229
GstE9 (Glutathione S transferase E9): DRSC06679 -1.04
Tsp42Eo (Tetraspanin 42Eo): DRSC06184 0.277
CG4887: DRSC00670 0.727; DRSC21563 0.0826
crc (cryptocephal): DRSC03513 1.47
Veneno: DRSC16537 0.0713
Strn-Mlck (Stretchin-Mlck): DRSC05032 0.153; DRSC07471 -0.627
Chi (Chip): DRSC04602 0.284
Send2 (Spermathecal endopeptidase 2): DRSC01906 0.0997
Hap40 (Huntingtin-associated protein 40 kDa): DRSC20085 2.65
CG4049: DRSC04443 0.878
LysD + LysC (retired record): DRSC08674 -0.248; DRSC22743 -0.735
Arl1 (ADP ribosylation factor-like 1): DRSC09667 -2.32
CG31457: DRSC22935 -0.271
gem (gemini): DRSC06093 0.328; DRSC06847 0.402
CG40191: DRSC21041 -0.729
kirre (kin of irre): DRSC18785 -0.533
His2B:CG33870 + His2B:CG33868 + His2B:CG33882 + 21 more: DRSC03757 1.23
CG13135: DRSC02232 1.88
mop (myopic): DRSC11065 -2.13
Acp53C14a (Accessory gland protein 53C14a): DRSC07224 0.456
Bfc (Booster for Crq): DRSC08623 -1.51
Cyp4d20 (Cytochrome P450 4d20): DRSC08654 -0.894
Acp95EF (Accessory gland protein 95EF): DRSC14102 -1.5
lncRNA:noe (long non-coding RNA:noe): DRSC22747 -0.361
CG5214: DRSC15739 0.278; DRSC22842 1.92
bug (bunker gear): DRSC07137 -0.485
CG9752: DRSC04562 -0.0017
CG30430: DRSC22260 0.302
Gp150: DRSC04618 4.22
CG14230: DRSC19586 0.264
CG15167: DRSC02468 0.534
CG13796 + CG31904: DRSC22161 -0.498
